Results published in patent US5410052A, “Symmetrical and unsymmetrical polyalkylamine metal complexes for ligand extraction and generation” (The Regents of the University of California, priority 1990, dated 1995).

How the values were obtained:
[1] = Coulometry of cobalt PAA carrier compounds (oxygen release); conditions: cobalt complex; for % O2 max: at the minimum voltage Vmin
From the text: Coulometry techniques allow the determination of the relative energetics and rates of oxygen release. For such experiments, solutions similarly to those outlined above for cyclic voltammetry are placed in a three-electrode electrolysis cell equipped with a Clark-type oxygen probe. […] Each oxidizing potential is held constant with respect to a silver-silver chloride reference electrode. The resulting current is integrated over time to yield the amount of carrier compounded oxidized. By employing the same electrode geometry, solution volume, stirring rate, information about the relative rate and amount of oxygen release (the "O2 rate") can be determined, at a particular applied cell voltage. Eapp from the response of the oxygen probe.
The expected amount of oxygen evolved is given one-half the total integrated charge through the cell divided by F=96,484 C/mole, since theoretically, two electrons are required to oxidize the two cobalt ions and release one oxygen molecule. The ratio of this figure to the actual amount of oxygen produced is "% O2 max", at the minimum voltage, Vmin, required to produce oxygen. In additional, the "voltage window" the difference between the anodic oxygen evolution and cathodic reduction potentials is measured.
A typical cyclic voltammetry trace, for the oxygenated Co(II) complex of PAA No. 72 using a glassy carbon electrode, is shown in FIG. 6. Coulometry data for several cobalt carrier compounds is summarized in Table V. The couliometric data reported on the average of three to five experiments. The standard deviations for O2 rate were +/=0.36 microliters per minute.

[2] = Electrochemical oxygen cell (EOC) results for cobalt carrier compounds; conditions: cobalt complex
From the text: One apparatus for bench-scale or laboratory-scale evaluation of particular carrier compounds for use in practicing the methods according to the invention is illustrated schematically in FIG. 8. The electrochemical oxygen cell (EOC), designated 20, includes generally an oxygen loader 22, an electrochemical cell 24 having an anode compartment 26 and a cathode compartment 28 separated by an ion-permeable membrane 30, and an unloader 32. Carrier fluid is circulated through loader 22, anode compartment 26, unloader 32, cathode compartment 28 and back to loader 22 using the pump 34 with appropriate plastic or glass conduit.
The carrier fluids suitable for use in, for example, electrochemical oxygen cell 20 comprise a carrier compound in a concentration between about 1 mM and 500 mM, usually between about 10 mM and 300 mM, usually between about 50 mM and about 200 mM. Carrier fluids comprising carrier compounds according to the present invention are preferably aqueous and include additional an electrolyte, e.g., sodium chloride, potassium chloride, sodium nitrate, potassium sulfate, at a concentration of between about 0.1M (moles/liter) and about 1.0M usually about 0.5M. The carrier fluids may be titrated or buffered to the desired pH. Buffer salts such as sodium borate, potassium phosphate, sodium phosphate, etc., may be used depending upon the pH desired, the availability of particular salts, and compatibility of particular buffer salts with particular carrier compounds. The buffer salts(s) are generally present in concentrations of between 10 mM and about 0.5M, usually between 50 mM and 100 mM.
Loader 22 is, for example a microporous hydrophobic hollow fiber membrane array such as that which will be described more fully below in connection with FIG. 9. Suitable membrane arrays are manufactured by Bard Cardiosurgery. Inc. of Concord, Calif. These membrane arrays are typically modified to allow fluid flow both inside and outside the hollow fibers in a manner that will be apparent to those skilled in the art.
Cell 24 includes a pair of titanium current collector plates 36, 38, which press against two electrodes 40, 42. Typically, electrodes 40, 42 are carbon felt electrodes, in one example of the cell 24 having dimensions of about 25 cm×10 cm.×0.5 cm. Electrodes 40, 42, and thus anode compartment 26 is cathode compartment 28, are separated by membrane 30 which is an ion-permeable membrane made, for example, of Nafion (sold by DuPont). Cell 24 is assembled in a plexiglass housing (not separately shown) having two halves which are bolted together and sealed with an O-ring or gasket seal (not shown). Cell 24 includes the necessary ports for introducing and removing carrier fluids from anode compartment 26 cathode compartment 28. Cell 24 further includes ports for insertion of reference electrodes 44, 46 which are conveniently, but not necessarily silver-silver chloride reference electrodes. Current collector plates 36, 38 are connected via titanium posts 48, 50 to a potentiostat (not shown) capable of supplying either a constant or a variable current or voltable to cell 24. Suitable potentiostats are available for example, from Princeton Applied Research, Princeton, N.J. Unloader 32, in the embodiment shown in FIG. 8 includes a cylindrical fluid gas separation chamber 52, equipped with a nitrogen sweep gas bubbler 54 near the bottom thereof and an exit port at the top thereof. Alternatively, unloader 32 may be a hollow fiber device such as that described above in connection with loader 22.
In operation, carrier fluid is circulated through loader 22 where it is exposed, through the ligand-permeable membrane, to the fluid from which oxygen is to be extracted. In the typical laboratory-scale electrochemical oxygen cell 20, carrier fluid of oxygenated using air as the external fluid. […]

[3] = Demonstration unit results for cobalt carrier compounds; conditions: cobalt complex
From the text: These components together form a sealed system containing a fixed volume of ligand carrier and carrier fluid. The apparatus shown in FIG. 9 is generally of a type generally intended for relatively larger scale production of oxygen. The electrochemical cell comprises twenty parallel TEFLON® (polytetrafluoroethylene, a trademark of the DuPont Company, Wilmington, Del.) plates having sputtered gold surfaces, between which the carrier fluid id directed, in parallel. The plates are 3 mm thick and spaced at a distance of 1 mm. An individual place is 62.5 cm long and 8 cm wide. When stacked in a parallel plate arrangement, the twenty layers have a total height of 8 cm. The use of a bipolar cell such as this enables the use of higher voltages at proportionately small currents than would be required to operate a single anode, single cathode cell of the same surface area. The electrochemical cell is connected to a voltage supply capable of providing 20 amps at 0.1 volt. The unloading station comprises one or more (one is shown) hollow fiber cartridges 1 inch in diameter and 43 inches in length containing hollow fibers which consist of porous polysulfone with an interior silicon rubber skin. The surface area of the hollow fibers is 0.25 m^2. When more than one such cartridge is used, they are arranged for parallel flow to a commensurate fraction of the total carrier fluid flow through the apparatus. Polyvinylchloride or polypropylene piping is used to connect various inlet and outlet ports. The outlet port of the first electrode compartment is connected to the inlet port of the small of the two hollow fiber cartridges so that the fluid which exists from the first electrode compartment enters the interior or the hollow fibers. This outlet port of the hollow fiber cartridge is connected to the inlet port of the second electrode compartment. The inlet port of the first electrode compartment is connected to the outlet port of the ligand extracting station while the outlet port of the second electrode compartment is connected through a pump to the inlet port of the ligand extracting station. In the embodiment shown, the ligand extracting station comprises one or more (one is shown) hollow fiber cartridges 3 inches in diameter and 43 inches in length, arranged for simultaneous parallel flow through the cartridges when more than one is used. Each cartridge contains 660 hollow fibers made of porous polysulfone with an interior silicon rubber skin. The hollow fibers have a membrane surface area of 2.5 m^2 and an interior volume of 646 ml. The space surrounding the hollow fibers is in communication with the electrochemical cell, not the interior of the hollow filbers. A fluid containing the ligand which is being extracted passes through the interior of the hollow fibers.
Approximately 1 liter of the carrier fluid is present in the interior volume of the apparatus as described above and the ligand extracting station together. Carrier fluid containing the ligand carrier having a ligand bound thereto passes from the exit port of the ligand extracting station into the inlet port of the first electrode compartment where a redox reaction takes place in order to release the ligand carrier having a ligand bound thereto passes from the exist port of the ligand extracting station into the inlet port of the first electrode compartment where a redox reaction takes place in order to release the ligand from the ligand carrier. Free ligand, carrier fluid, and nonbinding-state ligand carrier pass from the exist port of the first electrode chamber into the ligand unloading station where ligand passes through the walls of the ligand-permeable membrane and is collected. In the particular illustration shown, oxygen passes directly in the space where it is being utilized. It is also possible to pass fluids or chemical reactants over the outside of the hollow fibers. […]

[4] = 10 mM PAA, 30 mL/min, pH 6, 1.6 V
[5] = 110 mM PAA, 50 mL/min, pH 6, 1.6 V
[6] = 52.5 mM PAA, 1200 mL/min, pH 10.15, 16 V (ten cell stock)
[7] = 110 mM PAA, 4000 mL/min, pH 8.3, 16 V (ten cell stock)
[8] = 10 mM PAA, 30 mL/min, pH 6.7, 0.9 V
[9] = 10 mM PAA, 30 mL/min, pH 6.7, 1.6 V
[10] = 50 mM PAA, 60 mL/min, pH 7, 0.6 V
[11] = 100 mM PAA, 50 mL/min, pH 7, 0.6 V
[12] = 100 mM PAA, 120 mL/min, pH 7, 0.6 V
[13] = 200 mM PAA, 45 mL/min, pH 7, 0.6 V

With `c1ccc(Cn2ccnc2CNCCCNCCNCc2nccn2Cc2ccccc2)cc1` [compound 121] as the compound, how does the “O2 Rate” value ([1]; EApp 0.75 V) read?
Its value is 1.4 ± 0.2 µL/min.

What about the “% O2 max” value [1] of the same compound?
The value was 28%.

Which “O2 Rate” value ([1]; EApp 0.50 V) does the source give for `c1ccc(CNCCCCNCCCNCc2ccccn2)nc1` [compound 78] here?
The value was 0.8 ± 0.2 µL/min.

And the “% O2 max” value [1]?
The value was 16%.

With `NCCNCCNCCNCCN` [compound 33] as the compound, how does the “EC O2 (electrochemical oxygen production rate)” value (“EC O2” for short) [2, 4] read?
The value was 0.284 mL/min.

And the Power consumed [2, 4]?
Its Power consumed is 839 W/L/min.

And the “e-/O2 (electrons passed per molecule of O2 produced)” value [2, 4]?
The value was 7.3.

And the “EC O2” value [2, 5]?
Its value is 2.0 mL/min.

What about the Power consumed [2, 5] of the same compound?
Its Power consumed is 259 W/L/min.

And the “e-/O2 (electrons passed per molecule of O2 produced)” value [2, 5]?
Its value is 2.3.

What about the “O2 Rate” value ([1]; EApp 0.55 V) of the same compound?
The value was 3.5 ± 0.1 µL/min.

And the “% O2 max” value [1]?
The value was 50%.

And the “EC O2” value [3, 6]?
The value was 58.7 mL/min.

What about the Power consumed [3, 6] of the same compound?
The Power consumed was 250 W/L/min.

What about the “EC O2” value [3, 7] of the same compound?
Its value is 87.5 mL/min.

What about the Power consumed [3, 7] of the same compound?
Its Power consumed is 808 W/L/min.

With `c1nc(CNCCCNCCNCc2c[nH]cn2)c[nH]1` [compound 119] as the compound, how does the “O2 Rate” value ([1]; EApp 0.65 V) read?
The value was 1.4 ± 0.3 µL/min.

Which “O2 Rate” value ([1]; EApp 0.60 V) does the source give for `Cc1[nH]cnc1CNCCCCNCCNCc1nc[nH]c1C` [compound 191] here?
The value was 5.8 ± 0.8 µL/min.

And the “% O2 max” value [1]?
Its value is 49%.

With `c1c[nH]c(CNCCCCNCCNCc2ncc[nH]2)n1` [compound 190] as the compound, how does the “O2 Rate” value ([1]; EApp 0.70 V) read?
The value was 1.4 ± 1.2 µL/min.

With `c1ccc(CNCCCNCCNCc2ccccn2)nc1` [compound 72] as the compound, how does the “EC O2” value [2, 8] read?
Its value is 0.091 mL/min.

What about the Power consumed [2, 8] of the same compound?
The Power consumed was 400 W/L/min.

And the “e-/O2 (electrons passed per molecule of O2 produced)” value [2, 8]?
Its value is 6.23.

What about the “EC O2” value [2, 9] of the same compound?
Its value is 0.548 mL/min.

And the Power consumed [2, 9]?
The Power consumed was 556 W/L/min.

And the “e-/O2 (electrons passed per molecule of O2 produced)” value [2, 9]?
The value was 4.8.

What about the “O2 Rate” value ([1]; EApp 0.75 V) of the same compound?
The value was 2.3 ± 0.5 µL/min.

Which “O2 Rate” value ([1]; EApp 0.60 V) does the source give for `c1nc(CNCCCCNCCNCc2c[nH]cn2)c[nH]1` [compound 180] here?
The value was 4.1 ± 0.5 µL/min.

What about the “% O2 max” value [1] of the same compound?
The value was 52%.

What does the source list for `Cn1ccnc1CNCCCCNCCNCc1nccn1C` [compound 192]?
EC O2 (electrochemical oxygen production rate) [2, 10]: 1.90 mL/min; Power consumed [2, 10]: 71 W/L/min.; e-/O2 (electrons passed per molecule of O2 produced) [2, 10]: 2.1; EC O2 (electrochemical oxygen production rate) [2, 11]: 1.20 mL/min; Power consumed [2, 11]: 66 W/L/min.; e-/O2 (electrons passed per molecule of O2 produced) [2, 11]: 2.0; O2 Rate ([1]; EApp 0.70 V): 7.7 ± 1.1 µL/min

For `c1nc(CNCCCNCCCNCc2c[nH]cn2)c[nH]1` [compound 74], which “O2 Rate” value ([1]; EApp 0.70 V) is on record?
The value was 1.5 ± 0.3 µL/min.

With `c1ccc(Cn2ccnc2CNCCCNCCCNCc2nccn2Cc2ccccc2)cc1` [compound 118] as the compound, how does the “O2 Rate” value ([1]; EApp 0.80 V) read?
The value was 1.6 ± 0.2 µL/min.

What about the “% O2 max” value [1] of the same compound?
Its value is 20%.

Which “O2 Rate” value ([1]; EApp 0.70 V) does the source give for `c1nc(CNCCNCCNCc2c[nH]cn2)c[nH]1` [compound 75] here?
The value was 1.5 ± 0.4 µL/min.

What about the “% O2 max” value [1] of the same compound?
The value was 28%.

Which “EC O2” value [2, 12] does the source give for `Cn1ccnc1CNCCCNCCNCc1nccn1C` [compound 133] here?
Its value is 0.60 mL/min.

And the Power consumed [2, 12]?
The Power consumed was 102 W/L/min.

And the “e-/O2 (electrons passed per molecule of O2 produced)” value [2, 12]?
Its value is 3.0.

With `c1c[nH]c(CNCCCNCCCNCc2ncc[nH]2)n1` [compound 73] as the compound, how does the “O2 Rate” value ([1]; EApp 0.70 V) read?
Its value is 0.7 ± 0.2 µL/min.

And the “% O2 max” value [1]?
The value was 31%.

With `Cn1ccnc1CNCCCNCCCNCc1nccn1C` [compound 189] as the compound, how does the “EC O2” value [2, 13] read?
The value was 1.80 mL/min.

What about the Power consumed [2, 13] of the same compound?
Its Power consumed is 142 W/L/min.

What about the “e-/O2 (electrons passed per molecule of O2 produced)” value [2, 13] of the same compound?
Its value is 4.3.

And the “O2 Rate” value ([1]; EApp 0.70 V)?
The value was 0.7 ± 0.4 µL/min.
